No constants are given. Whether binding was seen depends on the method and setting. Some binding calls cover weakened binding; strength is not graded here.
Target: T1, thyroid hormone receptor α1 (TRα1) (mouse (endogenous in bone marrow)) (UniProt P63058)
T1 sequence: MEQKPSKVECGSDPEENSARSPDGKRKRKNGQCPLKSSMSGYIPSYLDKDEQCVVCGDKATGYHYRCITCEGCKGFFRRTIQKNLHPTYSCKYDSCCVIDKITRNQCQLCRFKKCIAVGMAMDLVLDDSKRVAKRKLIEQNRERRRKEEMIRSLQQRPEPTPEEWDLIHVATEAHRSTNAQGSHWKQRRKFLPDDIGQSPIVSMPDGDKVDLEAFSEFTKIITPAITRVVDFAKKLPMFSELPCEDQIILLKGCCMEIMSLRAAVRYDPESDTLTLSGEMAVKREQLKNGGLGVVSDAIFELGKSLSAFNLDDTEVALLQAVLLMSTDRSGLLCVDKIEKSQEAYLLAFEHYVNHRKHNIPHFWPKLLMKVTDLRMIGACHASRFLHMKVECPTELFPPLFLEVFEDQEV
Assay: chromatin immunoprecipitation (ChIP); bone marrow cells of WT and mutant mice fixed in 1% formaldehyde, sheared, immunoprecipitated overnight at 4 °C with anti-NCOR1 (ab24552) or anti-HDAC3 antibody or IgG; qPCR of the TRE2 fragment upstream of Gata1; percentage of the input

Sequences of proteins named here, by UniProt entry; tags and fusion partners are left off.
UniProt Q60974: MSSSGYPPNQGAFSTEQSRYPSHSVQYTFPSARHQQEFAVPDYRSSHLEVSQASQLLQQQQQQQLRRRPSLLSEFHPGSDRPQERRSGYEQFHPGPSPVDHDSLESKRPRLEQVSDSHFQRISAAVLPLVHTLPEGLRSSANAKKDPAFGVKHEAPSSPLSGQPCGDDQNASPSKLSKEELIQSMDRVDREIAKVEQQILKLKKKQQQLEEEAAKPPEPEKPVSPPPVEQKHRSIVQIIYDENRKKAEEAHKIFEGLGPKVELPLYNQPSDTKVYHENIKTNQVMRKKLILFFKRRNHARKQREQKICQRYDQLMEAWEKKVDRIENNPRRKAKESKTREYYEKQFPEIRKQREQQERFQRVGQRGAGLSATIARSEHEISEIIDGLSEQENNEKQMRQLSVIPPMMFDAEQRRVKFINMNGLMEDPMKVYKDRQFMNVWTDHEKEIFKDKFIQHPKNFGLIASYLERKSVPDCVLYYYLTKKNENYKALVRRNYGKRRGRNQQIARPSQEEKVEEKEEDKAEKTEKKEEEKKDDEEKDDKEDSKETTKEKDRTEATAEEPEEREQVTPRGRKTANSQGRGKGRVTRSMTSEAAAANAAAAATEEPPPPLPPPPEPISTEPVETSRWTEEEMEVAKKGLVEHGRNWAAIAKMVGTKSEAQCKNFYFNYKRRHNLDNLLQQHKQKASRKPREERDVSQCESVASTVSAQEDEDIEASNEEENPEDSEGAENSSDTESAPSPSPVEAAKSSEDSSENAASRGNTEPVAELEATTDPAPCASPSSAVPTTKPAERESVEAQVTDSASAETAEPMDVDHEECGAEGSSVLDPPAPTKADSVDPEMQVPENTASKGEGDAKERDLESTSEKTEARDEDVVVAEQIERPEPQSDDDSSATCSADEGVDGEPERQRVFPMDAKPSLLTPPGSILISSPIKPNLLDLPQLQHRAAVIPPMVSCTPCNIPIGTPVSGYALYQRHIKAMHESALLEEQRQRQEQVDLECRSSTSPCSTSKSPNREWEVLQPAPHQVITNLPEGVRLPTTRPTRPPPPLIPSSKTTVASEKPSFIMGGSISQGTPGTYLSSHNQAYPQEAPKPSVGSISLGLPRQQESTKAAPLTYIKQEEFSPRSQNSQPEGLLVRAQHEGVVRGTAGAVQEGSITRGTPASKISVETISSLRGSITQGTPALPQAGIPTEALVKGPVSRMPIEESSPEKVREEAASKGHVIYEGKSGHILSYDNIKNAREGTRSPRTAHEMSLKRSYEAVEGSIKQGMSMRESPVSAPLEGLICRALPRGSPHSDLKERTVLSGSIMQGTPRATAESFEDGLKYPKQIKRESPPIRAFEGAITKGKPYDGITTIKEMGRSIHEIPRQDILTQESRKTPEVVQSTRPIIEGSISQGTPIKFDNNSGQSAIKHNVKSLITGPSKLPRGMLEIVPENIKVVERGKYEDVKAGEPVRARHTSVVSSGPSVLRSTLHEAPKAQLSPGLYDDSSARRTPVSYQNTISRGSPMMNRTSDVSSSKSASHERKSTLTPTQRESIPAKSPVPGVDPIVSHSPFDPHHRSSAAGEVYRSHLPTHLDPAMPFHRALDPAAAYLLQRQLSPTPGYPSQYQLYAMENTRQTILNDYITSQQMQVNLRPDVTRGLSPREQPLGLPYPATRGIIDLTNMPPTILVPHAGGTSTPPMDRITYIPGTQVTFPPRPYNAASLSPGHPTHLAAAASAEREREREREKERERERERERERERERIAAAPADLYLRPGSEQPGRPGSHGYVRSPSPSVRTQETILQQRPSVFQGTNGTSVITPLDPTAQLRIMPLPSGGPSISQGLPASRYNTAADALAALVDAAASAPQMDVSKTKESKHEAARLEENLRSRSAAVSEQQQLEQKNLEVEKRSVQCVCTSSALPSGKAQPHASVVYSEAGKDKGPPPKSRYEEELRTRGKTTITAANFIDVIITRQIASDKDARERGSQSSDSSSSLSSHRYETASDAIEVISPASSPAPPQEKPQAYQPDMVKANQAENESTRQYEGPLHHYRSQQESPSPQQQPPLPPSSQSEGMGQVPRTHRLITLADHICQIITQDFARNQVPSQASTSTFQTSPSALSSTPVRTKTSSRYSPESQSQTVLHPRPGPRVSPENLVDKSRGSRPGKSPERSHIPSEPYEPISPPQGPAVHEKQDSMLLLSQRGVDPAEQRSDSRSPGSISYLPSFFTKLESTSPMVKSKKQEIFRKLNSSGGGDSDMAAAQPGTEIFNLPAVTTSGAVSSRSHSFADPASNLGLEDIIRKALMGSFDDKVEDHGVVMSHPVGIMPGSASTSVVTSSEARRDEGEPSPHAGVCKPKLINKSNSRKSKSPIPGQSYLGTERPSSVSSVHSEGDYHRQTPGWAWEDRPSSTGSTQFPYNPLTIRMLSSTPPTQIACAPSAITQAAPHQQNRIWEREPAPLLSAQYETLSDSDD

nuclear receptor corepressor 1 (NCOR1) (from UniProt Q60974 1-2453)
binding: binds weakly

— PMC5741760
